# Some entries share one result that the patent states for a list of compounds.
# Biological target: thymidine kinase (TK)
# Assay: Fluorescence binding studies with TK
# Conditions: 2 μM peptide, 2 or 4 μM TK, Tris buffer; assumes more than 90% complexed; read-out: Kd estimated from fluorescence screen
# Experimental: Estimating that at least 60% of the peptides were then bearing the ligand, the solution was diluted to 2 μM concentration and the protein TK was added. The fluorescence response was screened after 15 min, 45 min, 2 hrs, and 20 hrs. A maximal response was seen after 2 hours of incubation time.
# A NUNC™ polystyrene 384 well plate (100 μl-volume) and pipette-tips were coated with Pluronic® overnight, then washed with H2O and dried. The fluorescence-measurement was carried out in Tris-buffers (Buffer for TK-studies: 20 mM Tris/HCl, 0.4 M NaCl, 0.3 M imidazole, 2 mM DTT, 50% glycerol, pH 7.6). Assuming that at least 60% of the dT-binder was conjugated to the polypeptides (see 0), stock-solutions were prepared with a concentration of 60 μM. The concentration of the TK stock solution was 0.10 mM. A polypeptide concentration of 2 μM in […] was used. The protein was added to wells containing the peptide conjugates to give final TK concentrations of 2 or 4 μM. Fluorescence intensities of protein-binder mixtures were compared to intensities of binders without protein and a significant change in fluorescence intensity in the presence of one equivalent of protein, in comparison to that of binder without protein, was interpreted as complexation of target protein by the binder. Binders showing a change in intensity in the presence of 2 μM protein but no further change in intensity in the presence of 4 μM protein were considered “hits”.
# The dansyl probe was excited at 335 nm and emission was recorded 420-600 nm. All measurements were performed at room temperature and were made in triplicates. The wells were read after 15 min, 45 min and 2 hours.
row,Substance,Kd [nM]
1,3-C15L8-dT: polypeptide 3-C15L8 conjugated to deoxy-thymidine (dT) probe 19 (NAADLEAKIRHLAEKLAARGPVDAAQLAEQLARRFEAFARAG),≤ 20
2,3-C25L22-dT: polypeptide 3-C25L22 conjugated to deoxy-thymidine (dT) probe 19 (NAADLEAAIRHLAERLAARGPKDAKQLAEQLARAFEAFARAG),≤ 20
3,4-C10L17-dT: polypeptide 4-C10L17 conjugated to deoxy-thymidine (dT) probe 19 (NAADLEARIKHLRERLKARGPRDAAQLAEQLARAFERFARAG),≤ 20
4,2-C10L17-dT: polypeptide 2-C10L17 conjugated to deoxy-thymidine (dT) probe 19 (NAADLEAAIKHLAEALKARGPVDAAQLAEQLARAFEAFARAG),≤ 20

# — patent publication US9377466B2, “Compounds and methods” (Modpro AB, priority 2010, dated 2016)
